Source: PubChem BioAssay AID1224863 (Southern Research Institute, 2016)
Some of the results follow.

Chains of the proteins cited; added tags and fusions are not shown. A line that says so, or that is headed by a name, gives the form on record, which may keep a tag or linker.
UniProt P13569, with tags, fused parts or gaps F508del: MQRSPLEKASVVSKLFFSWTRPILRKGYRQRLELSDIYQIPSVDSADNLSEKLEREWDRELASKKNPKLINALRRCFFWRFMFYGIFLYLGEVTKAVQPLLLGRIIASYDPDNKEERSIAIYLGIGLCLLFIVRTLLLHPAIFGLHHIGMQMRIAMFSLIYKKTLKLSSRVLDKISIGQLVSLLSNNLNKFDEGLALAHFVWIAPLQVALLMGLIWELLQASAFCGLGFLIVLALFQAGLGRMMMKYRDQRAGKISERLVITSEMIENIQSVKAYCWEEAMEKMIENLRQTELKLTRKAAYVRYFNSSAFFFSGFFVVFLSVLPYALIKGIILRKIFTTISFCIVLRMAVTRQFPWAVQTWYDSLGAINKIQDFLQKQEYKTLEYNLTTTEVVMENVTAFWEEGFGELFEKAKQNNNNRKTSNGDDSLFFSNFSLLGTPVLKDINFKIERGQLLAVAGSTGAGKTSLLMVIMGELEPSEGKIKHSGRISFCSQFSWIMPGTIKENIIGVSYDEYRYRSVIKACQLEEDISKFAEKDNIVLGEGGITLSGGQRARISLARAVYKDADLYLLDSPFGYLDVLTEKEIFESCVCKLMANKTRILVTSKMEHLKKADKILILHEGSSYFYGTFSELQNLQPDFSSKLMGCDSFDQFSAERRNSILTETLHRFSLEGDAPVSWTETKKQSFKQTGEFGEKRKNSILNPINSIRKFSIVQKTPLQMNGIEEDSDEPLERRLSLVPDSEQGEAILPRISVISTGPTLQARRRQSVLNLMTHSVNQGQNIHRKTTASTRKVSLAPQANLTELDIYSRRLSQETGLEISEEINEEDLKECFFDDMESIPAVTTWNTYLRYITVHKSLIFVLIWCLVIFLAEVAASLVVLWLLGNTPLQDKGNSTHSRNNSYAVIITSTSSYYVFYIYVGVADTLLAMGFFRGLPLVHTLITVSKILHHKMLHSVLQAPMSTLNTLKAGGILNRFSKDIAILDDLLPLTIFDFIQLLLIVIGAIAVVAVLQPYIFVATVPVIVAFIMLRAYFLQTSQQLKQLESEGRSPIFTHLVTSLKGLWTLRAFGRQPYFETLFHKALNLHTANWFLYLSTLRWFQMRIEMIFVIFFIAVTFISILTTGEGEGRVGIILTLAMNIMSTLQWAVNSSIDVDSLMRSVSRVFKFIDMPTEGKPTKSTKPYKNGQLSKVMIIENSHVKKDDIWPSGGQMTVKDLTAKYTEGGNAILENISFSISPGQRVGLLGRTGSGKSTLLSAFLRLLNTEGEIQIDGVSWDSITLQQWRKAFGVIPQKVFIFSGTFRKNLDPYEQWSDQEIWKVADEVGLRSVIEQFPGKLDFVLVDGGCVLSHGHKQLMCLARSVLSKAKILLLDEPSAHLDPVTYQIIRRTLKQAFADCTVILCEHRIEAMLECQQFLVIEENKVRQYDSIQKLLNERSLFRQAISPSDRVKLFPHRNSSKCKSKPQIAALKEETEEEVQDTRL

How the values were obtained:
[1] = total CFTR protein upregulators, primary screen, cell-based, HeLa F508del-CFTR, immunofluorescence, viability (AID 1224863); settings: 24 h, measured here: primary viability 25 uM, at 25 µM, library dosed in µM, stronger effect = higher value;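 as to fold increase: total CFTR protein by anti-CFTR immunofluorescence in fixed cells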
[2] = molecular target: Cystic fibrosis transmembrane conductance regulator (Homo sapiens) (UniProt P13569); experiment: as above; settings: 24 h, measured here: primary screen single dose 25 uM, at 25 µM, library dosed in µM, stronger effect = higher value

SMILES	viability [1] [%]	fold increase [2]
NC(=O)Nc1ccc([As](=O)(O)O)cc1	85	1.01
CN(C)CCS	88	1.08
OCCSCCO	109	1.1
C/C1=C2N=C(/C=C3N=C(/C(C)=C4\[N-]C([C@H](CC(N)=O)[C@@]4(C)CCC(=O)NCC(C)OP(=O)([O-])O[C@@H]4[C@@H](CO)OC(n5cnc6cc(C)c(C)cc65)[C@@H]4O)C4(C)N=C1C(CCC(N)=O)C4(C)CC(N)=O)C(CCC(N)=O)C\3(C)C)C(CCC(N)=O)C/2(C)CC(N)=O.[C-]#N.[Co+3] (stereo partly specified)	73	1.11
O=C(O[C@H]1CN2CCC1CC2)C1NCc2ccccc2[C@@H]1c1ccccc1 (stereo partly specified)	112	1.09
O=P(O)(O)F	94	1.03
O=C(OC1CN2CCC1CC2)c1ccccc1 (stereo unspecified)	86	0.97
C/C1=C2N=C(/C=C3N=C(/C(C)=C4\[N-][C@@](C)([C@@H]5N=C1[C@](C)(CCC(=O)NC[C@@H](C)OP(=O)([O-])O[C@H]1[C@@H](O)[C@@H](n6cnc7cc(C)c(C)cc76)O[C@@H]1CO)[C@H]5CC(N)=O)[C@@](C)(CC(N)=O)[C@@H]4CCC(N)=O)[C@@](C)(CC(N)=O)[C@@H]\3CCC(N)=O)C(C)(C)[C@@H]/2CCC(N)=O.[C-]#N.[Co+3]	75	1.03
